# Laboratory results: the supplement of paper PMC4635364
# Where a name gives a salt, the structure may show the parent alone. The list shows a part of the results. This data set is noisy: repeats of one test often differ as much as different tests do.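 Human fetal ventral-midbrain neural progenitor line ReNCell VM, differentiated without mitogens. Images stained for doublecortin (early neurons) or tyrosine hydroxylase (dopaminergic neurons) were scored by blinded raters against untreated wells (0 = no change). Repeats and both raters were averaged, and compounds averaging 2 or higher were picked as hits for retesting.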
# Tests used:
# [1] = tested on: ReNCell VM; assay: neuronal differentiation score (DCX+ cell fraction vs untreated, manual image score) (score (-3 to 3)); higher = more neuronal differentiation; details: 2 uM, 2 weeks
# [2] = tested on: ReNCell VM; assay: dopaminergic neuron differentiation score (TH+ cell fraction vs untreated, manual image score) (score (0 to 3)); higher = more TH+ dopaminergic neuron differentiation; details: 2 uM, 4 weeks, BDNF 10 ng/ml + GDNF 10 ng/ml
structure (smiles),measurement,setting,value
CC(C)NCC(O)COc1ccc(COCCOC(C)C)cc1 (stereo not given) [Bisoprolol fumarate],neuronal differentiation score,[1]; library: Prestwick,inactive: 0
same,dopaminergic neuron differentiation score,[2]; library: Prestwick,inactive: 0
COc1cc2c(cc1OC)C(=O)Cc1ccc3c(c1CN(C)CC2)OCO3 [cryptopine],neuronal differentiation score,[1]; library: Natural,inactive: 1
same,dopaminergic neuron differentiation score,[2]; library: Natural,inactive: 0
CCOc1ccc2nc(S(N)(=O)=O)sc2c1,neuronal differentiation score,[1]; library: Spectrum,inactive: 0
same,dopaminergic neuron differentiation score,[2]; library: Spectrum,inactive: 0
Cc1onc(-c2ccccc2Cl)c1C(=O)N[C@@H]1C(=O)N2[C@@H]1SC(C)(C)[C@@H]2C(=O)O,neuronal differentiation score,[1]; library: Spectrum,inactive: 0
same,dopaminergic neuron differentiation score,[2]; library: Spectrum,inactive: 0
Cc1c(-c2ccccc2)oc2c(C(=O)OCCN3CCCCC3)cccc2c1=O [Flavoxate hydrochloride],neuronal differentiation score,[1]; library: Prestwick,inactive: 0
same,dopaminergic neuron differentiation score,[2]; library: Prestwick,inactive: 0
Cc1cc(O)c(C=O)c2c1C(=O)Oc1c(C)c(O)c3c(c1O2)C(O)OC3=O (stereo not given),neuronal differentiation score,[1]; library: Spectrum,inactive: 0
same,dopaminergic neuron differentiation score,[2]; library: Spectrum,inactive: 0
Clc1ccc(CO/N=C(\Cn2ccnc2)c2ccc(Cl)cc2Cl)c(Cl)c1,neuronal differentiation score,[1]; library: Spectrum,inactive: 0
same,dopaminergic neuron differentiation score,[2]; library: Spectrum,inactive: 0
COc1cc2c(cc1OC)C(=O)C(CC1CCN(Cc3ccccc3)CC1)C2 (stereo not given),neuronal differentiation score,[1]; library: Spectrum,active: 3
same,dopaminergic neuron differentiation score,[2]; library: Spectrum,inactive: 0
CN1CCCN=C1COC(=O)C(O)(c1ccccc1)C1CCCCC1 (stereo not given),neuronal differentiation score,[1]; library: Spectrum,inactive: 0
same,dopaminergic neuron differentiation score,[2]; library: Spectrum,inactive: 0
CC(C)CCCC(C)NC(C)C (stereo not given),neuronal differentiation score,[1]; library: Spectrum,inactive: 0
same,dopaminergic neuron differentiation score,[2]; library: Spectrum,inactive: 0
Oc1c(Br)cc(Br)c2cccnc12,neuronal differentiation score,[1]; library: Spectrum,inactive: 0
same,dopaminergic neuron differentiation score,[2]; library: Spectrum,inactive: 0
"COc1cc2c(cc1OC)C(c1ccccc1)=NCC2 [6,7-dimethoxy-1-phenyl-3,4-dihydro-isoquinoline]",neuronal differentiation score,[1]; library: Natural,inactive: 0
same,dopaminergic neuron differentiation score,[2]; library: Natural,inactive: 0
C[N+](C)(C)CC(=O)O,neuronal differentiation score,[1]; library: Spectrum,inactive: 0
same,dopaminergic neuron differentiation score,[2]; library: Spectrum,inactive: 0
CC1OC2(CS1)CN1CCC2CC1 (stereo not given) [Cevimeline hydrochloride],neuronal differentiation score,[1]; library: Tocriscreen,inactive: 0
same,dopaminergic neuron differentiation score,[2]; library: Tocriscreen,inactive: 0
O=C1NC(=O)c2cc(Nc3ccc(F)cc3)c(Nc3ccc(F)cc3)cc21,neuronal differentiation score,[1]; library: Tocriscreen,inactive: 0
same,dopaminergic neuron differentiation score,[2]; library: Tocriscreen,inactive: 0
C1CCC(C(CC2CCCCN2)C2CCCCC2)CC1 (stereo not given),neuronal differentiation score,[1]; library: Spectrum,inactive: 0
same,dopaminergic neuron differentiation score,[2]; library: Spectrum,inactive: 0
C=C1C[C@]23CC4[C@@H]5[C@@]6(C)C[C@H](O)C[C@]57C(C2[C@@H](O)[C@H]1[C@@H](O)[C@H]37)N4C6 [hetisine],neuronal differentiation score,[1]; library: Natural,inactive: 0
same,dopaminergic neuron differentiation score,[2]; library: Natural,inactive: 0
Cc1ccc(Cl)c(Nc2ccccc2C(=O)O)c1Cl [Meclofenamic acid sodium],neuronal differentiation score,[1]; library: LOPAC,inactive: 0
same,dopaminergic neuron differentiation score,[2]; library: LOPAC,inactive: 0
NC(=O)Nc1sc(-c2ccc(F)cc2)cc1C(N)=O,neuronal differentiation score,[1]; library: Tocriscreen,inactive: 0
same,dopaminergic neuron differentiation score,[2]; library: Tocriscreen,inactive: 0
COc1c(N2C[C@@H]3CCCN[C@@H]3C2)c(F)cc2c(=O)c(C(=O)O)cn(C3CC3)c12,neuronal differentiation score,[1]; library: Spectrum,inactive: 1
same,dopaminergic neuron differentiation score,[2]; library: Spectrum,inactive: 0

# An excerpt of these results, tab-delimited:
structure (smiles)	measurement	setting	value
Cc1onc(-c2ccccc2Cl)c1C(=O)N[C@@H]1C(=O)N2[C@@H]1SC(C)(C)[C@@H]2C(=O)O	dopaminergic neuron differentiation score	[2]; library: Spectrum	inactive: 0
Cc1c(-c2ccccc2)oc2c(C(=O)OCCN3CCCCC3)cccc2c1=O [Flavoxate hydrochloride]	neuronal differentiation score	[1]; library: Prestwick	inactive: 0
